# Measurements: paper PMC2652392, “The Structural Basis of Gas-Responsive Transcription by the Human Nuclear Hormone Receptor REV-ERBβ” (PLoS Biology, 2009)
# These are yes or no findings as the source states them, for the method shown. Some binding calls cover weakened binding; strength is not graded here.
# T1: SMRT interaction domain I (IDI) peptide
# T1 sequence (peptide, fluorescein on the N-terminus): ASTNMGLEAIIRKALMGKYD
# Target: T1, SMRT interaction domain I (IDI) peptide
# Assay: fluorescence polarisation; unpublished data; 110 nM N-terminally fluorescein-labelled SMRT peptide with a dilution series of LBD; 100 mM Tris pH 8.2, 150 mM NaCl; absence and presence of heme and gas; both purified
binder,measurement,value
"REV-ERBα ligand-binding domain (residues 274–614 with an internal deletion of residues 324–422) (domain or fragment, UniProt P20393) TPPRSPSPEPTVEDVISQVARAHREIFTYAHDKLGSSPGNFNANHASGSPYPHGRSGRTVQEIWEDFSMSFTPAVREVVEFAKHIPGFRDLSQHDQVTLLKAGTFEVLMVRFASLFNVKDQTVMFLSRTTYSLQELGAMGMGDLLSAMFDFSEKLNSLALTEEELGLFTAVVLVSADRSGMENSASVEQLQETLLRALRALVLKNRPLETSRFTKLLLKLPDLRTLNNMHSEKLLSFRVDAQ",binding,binds
